For assay [1], the target named is T1, tissue-deposited CRP (human (endogenous in burn wound, skeletal muscle and carotid plaque tissue)), P02741.
T1 chain: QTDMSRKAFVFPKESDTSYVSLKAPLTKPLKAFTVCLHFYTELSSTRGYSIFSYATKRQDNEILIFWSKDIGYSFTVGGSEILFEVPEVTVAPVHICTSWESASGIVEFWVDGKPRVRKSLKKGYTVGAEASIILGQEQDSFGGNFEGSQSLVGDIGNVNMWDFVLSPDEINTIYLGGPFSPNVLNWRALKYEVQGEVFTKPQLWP
Briefly: accessibility of the intrasubunit disulfide bond to DTT; tissue lysates with or without 10 mM DTT, 37 °C, 2 h, 25 mM Tris-HCl pH 7.4, 150 mM NaCl, 2 mM CaCl2; NEM; non-reducing SDS-PAGE; DTT reduces mCRP but not pCRP/pCRP*. Conditions: remark: other sources report otherwise.

Assay [2] addresses T2, pentameric C-reactive protein (human), P02741.
T2 chain: T1 chain
The experiment in a line: accessibility of the intrasubunit disulfide bond to DTT; pCRP in the presence of PC/LPC liposomes or microvesicles, 10 mM DTT, 37 °C; non-reducing SDS-PAGE; control mCRP reduced; both purified. Conditions: remark: other sources report otherwise.

No constants are given. Whether binding was seen depends on the method and setting. Some binding calls cover weakened binding; strength is not graded here.

B1: tissue-deposited CRP, P02741 19-224 (natural protein)
chain: T1 chain
For B1, in assay [1], the binding entry is on record as “binds”.

B2: pentameric C-reactive protein, P02741 19-224 (natural protein)
chain: T1 chain
As for B2, the binding result in assay [2] is on record as “binds”.
